Test results taken from the supplement of paper PMC10849652.
Some of the results follow.

Protein sequences, listed by entry. Tags and fused reporters are not part of them. Lines headed by an entry give the natural chain unless they say otherwise; changes in a name come on top.
UniProt Q8TEX9: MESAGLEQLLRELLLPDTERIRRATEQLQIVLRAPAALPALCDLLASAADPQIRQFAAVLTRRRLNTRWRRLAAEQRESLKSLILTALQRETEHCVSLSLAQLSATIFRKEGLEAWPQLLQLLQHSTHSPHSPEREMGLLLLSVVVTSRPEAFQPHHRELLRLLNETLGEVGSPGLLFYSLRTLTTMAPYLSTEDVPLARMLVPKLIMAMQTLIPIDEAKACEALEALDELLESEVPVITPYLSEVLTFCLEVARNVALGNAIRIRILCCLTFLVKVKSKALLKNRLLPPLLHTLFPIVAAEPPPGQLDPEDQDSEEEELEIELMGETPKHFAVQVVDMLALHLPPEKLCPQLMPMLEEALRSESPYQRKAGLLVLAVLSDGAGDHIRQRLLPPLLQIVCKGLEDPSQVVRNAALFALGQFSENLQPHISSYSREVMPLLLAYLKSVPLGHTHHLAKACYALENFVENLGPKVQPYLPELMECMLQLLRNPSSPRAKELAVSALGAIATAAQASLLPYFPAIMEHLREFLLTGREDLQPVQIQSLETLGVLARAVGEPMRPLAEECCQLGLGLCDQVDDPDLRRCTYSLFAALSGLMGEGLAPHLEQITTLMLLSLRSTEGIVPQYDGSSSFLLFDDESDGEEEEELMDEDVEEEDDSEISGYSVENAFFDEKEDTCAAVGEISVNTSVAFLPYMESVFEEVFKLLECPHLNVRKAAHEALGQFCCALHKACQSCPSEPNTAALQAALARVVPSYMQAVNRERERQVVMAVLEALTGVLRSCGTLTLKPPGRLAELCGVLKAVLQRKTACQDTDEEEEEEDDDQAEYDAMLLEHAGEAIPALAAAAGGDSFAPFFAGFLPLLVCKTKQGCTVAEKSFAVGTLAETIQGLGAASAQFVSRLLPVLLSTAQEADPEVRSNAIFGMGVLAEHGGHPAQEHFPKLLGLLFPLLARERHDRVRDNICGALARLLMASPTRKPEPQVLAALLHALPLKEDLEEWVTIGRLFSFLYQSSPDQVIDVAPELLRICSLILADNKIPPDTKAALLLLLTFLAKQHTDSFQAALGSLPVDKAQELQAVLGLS
UniProt O95373, whole entry, looked up: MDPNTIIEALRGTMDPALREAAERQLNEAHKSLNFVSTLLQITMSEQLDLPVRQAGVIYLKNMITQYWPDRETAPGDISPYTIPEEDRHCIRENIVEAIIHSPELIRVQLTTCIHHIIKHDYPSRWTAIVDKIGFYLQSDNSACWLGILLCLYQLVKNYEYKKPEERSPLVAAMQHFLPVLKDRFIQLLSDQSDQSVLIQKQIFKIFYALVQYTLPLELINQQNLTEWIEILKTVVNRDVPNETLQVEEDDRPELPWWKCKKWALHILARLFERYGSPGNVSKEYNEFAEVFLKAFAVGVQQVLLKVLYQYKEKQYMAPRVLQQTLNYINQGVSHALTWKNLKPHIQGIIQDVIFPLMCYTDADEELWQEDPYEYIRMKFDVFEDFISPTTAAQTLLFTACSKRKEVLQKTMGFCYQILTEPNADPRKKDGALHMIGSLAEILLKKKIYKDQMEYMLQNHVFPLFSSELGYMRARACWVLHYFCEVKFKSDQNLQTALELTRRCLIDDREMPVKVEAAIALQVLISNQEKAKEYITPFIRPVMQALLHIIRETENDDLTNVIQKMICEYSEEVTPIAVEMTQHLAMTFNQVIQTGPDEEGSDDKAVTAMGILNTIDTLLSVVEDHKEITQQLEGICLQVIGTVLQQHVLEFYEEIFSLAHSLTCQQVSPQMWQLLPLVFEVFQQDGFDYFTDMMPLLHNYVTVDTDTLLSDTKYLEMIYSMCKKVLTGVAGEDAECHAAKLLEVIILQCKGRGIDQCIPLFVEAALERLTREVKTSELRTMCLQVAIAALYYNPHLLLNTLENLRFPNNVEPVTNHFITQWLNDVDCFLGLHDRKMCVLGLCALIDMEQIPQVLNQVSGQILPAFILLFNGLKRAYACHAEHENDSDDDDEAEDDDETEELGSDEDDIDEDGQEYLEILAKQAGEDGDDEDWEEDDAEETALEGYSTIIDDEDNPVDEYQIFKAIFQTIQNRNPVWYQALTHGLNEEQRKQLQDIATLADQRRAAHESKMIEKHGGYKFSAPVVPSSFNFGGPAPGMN
UniProt P11717, whole entry, looked up: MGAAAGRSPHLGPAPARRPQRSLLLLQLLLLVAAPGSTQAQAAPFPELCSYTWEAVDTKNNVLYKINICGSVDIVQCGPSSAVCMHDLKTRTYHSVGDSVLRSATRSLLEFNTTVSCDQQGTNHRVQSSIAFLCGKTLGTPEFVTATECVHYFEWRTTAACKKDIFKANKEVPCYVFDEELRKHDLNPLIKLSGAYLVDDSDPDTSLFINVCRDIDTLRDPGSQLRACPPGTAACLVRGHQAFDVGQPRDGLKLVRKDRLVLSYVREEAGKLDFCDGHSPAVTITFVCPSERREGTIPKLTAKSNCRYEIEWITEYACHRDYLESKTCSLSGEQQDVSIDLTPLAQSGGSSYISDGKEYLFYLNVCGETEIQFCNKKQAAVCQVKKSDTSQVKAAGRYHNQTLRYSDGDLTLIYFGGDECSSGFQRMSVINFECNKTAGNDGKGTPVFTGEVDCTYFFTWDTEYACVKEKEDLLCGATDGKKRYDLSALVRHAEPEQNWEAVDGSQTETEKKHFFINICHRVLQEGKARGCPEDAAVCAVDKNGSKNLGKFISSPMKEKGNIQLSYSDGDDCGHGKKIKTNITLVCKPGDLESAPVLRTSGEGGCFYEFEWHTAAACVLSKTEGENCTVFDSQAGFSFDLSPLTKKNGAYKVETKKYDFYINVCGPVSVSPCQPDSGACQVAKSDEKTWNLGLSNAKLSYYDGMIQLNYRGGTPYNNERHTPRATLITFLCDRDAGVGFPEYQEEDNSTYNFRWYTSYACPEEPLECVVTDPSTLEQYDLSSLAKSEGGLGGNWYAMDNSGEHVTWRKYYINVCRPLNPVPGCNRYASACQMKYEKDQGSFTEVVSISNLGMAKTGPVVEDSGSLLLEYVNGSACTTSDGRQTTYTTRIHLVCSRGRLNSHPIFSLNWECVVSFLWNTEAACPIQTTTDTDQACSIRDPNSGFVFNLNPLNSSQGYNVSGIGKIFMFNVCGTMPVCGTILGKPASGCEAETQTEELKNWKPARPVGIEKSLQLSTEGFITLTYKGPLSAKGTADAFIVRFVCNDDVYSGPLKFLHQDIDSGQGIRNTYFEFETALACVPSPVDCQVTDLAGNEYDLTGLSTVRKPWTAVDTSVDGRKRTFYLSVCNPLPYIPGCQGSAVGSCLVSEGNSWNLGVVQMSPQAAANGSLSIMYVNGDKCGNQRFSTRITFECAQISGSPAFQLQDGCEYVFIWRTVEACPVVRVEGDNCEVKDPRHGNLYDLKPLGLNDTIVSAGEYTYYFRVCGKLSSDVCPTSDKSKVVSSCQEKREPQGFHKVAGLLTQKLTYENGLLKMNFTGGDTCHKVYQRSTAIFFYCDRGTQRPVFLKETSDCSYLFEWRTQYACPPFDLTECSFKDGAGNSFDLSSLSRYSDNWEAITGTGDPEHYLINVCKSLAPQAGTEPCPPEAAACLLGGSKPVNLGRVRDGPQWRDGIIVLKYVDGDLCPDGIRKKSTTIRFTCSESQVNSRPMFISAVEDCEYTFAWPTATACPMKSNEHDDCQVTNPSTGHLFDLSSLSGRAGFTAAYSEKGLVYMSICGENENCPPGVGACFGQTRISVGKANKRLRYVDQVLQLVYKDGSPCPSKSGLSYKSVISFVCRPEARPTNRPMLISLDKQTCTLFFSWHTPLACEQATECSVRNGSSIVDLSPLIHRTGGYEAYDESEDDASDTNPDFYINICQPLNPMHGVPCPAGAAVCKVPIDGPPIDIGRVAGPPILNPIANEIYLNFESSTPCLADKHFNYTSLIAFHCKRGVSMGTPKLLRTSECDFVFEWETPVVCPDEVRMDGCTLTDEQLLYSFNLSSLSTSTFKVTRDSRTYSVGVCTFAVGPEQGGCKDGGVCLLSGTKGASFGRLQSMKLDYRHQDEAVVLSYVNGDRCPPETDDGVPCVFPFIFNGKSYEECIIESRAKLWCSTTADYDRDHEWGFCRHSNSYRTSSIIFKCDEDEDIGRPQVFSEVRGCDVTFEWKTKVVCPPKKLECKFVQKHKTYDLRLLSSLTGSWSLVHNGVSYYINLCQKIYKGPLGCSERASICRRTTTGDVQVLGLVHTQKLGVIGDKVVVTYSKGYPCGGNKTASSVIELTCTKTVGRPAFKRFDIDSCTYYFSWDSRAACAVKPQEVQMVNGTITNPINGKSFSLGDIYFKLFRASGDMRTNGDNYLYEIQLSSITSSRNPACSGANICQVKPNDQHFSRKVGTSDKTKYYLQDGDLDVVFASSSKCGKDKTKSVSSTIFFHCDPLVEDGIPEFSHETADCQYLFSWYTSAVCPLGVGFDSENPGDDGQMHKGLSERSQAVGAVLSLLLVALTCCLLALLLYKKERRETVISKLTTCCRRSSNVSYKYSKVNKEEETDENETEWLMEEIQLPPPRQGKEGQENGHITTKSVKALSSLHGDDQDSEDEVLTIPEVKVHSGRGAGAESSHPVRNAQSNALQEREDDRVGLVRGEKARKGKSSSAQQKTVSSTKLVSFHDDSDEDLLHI
UniProt Q12894: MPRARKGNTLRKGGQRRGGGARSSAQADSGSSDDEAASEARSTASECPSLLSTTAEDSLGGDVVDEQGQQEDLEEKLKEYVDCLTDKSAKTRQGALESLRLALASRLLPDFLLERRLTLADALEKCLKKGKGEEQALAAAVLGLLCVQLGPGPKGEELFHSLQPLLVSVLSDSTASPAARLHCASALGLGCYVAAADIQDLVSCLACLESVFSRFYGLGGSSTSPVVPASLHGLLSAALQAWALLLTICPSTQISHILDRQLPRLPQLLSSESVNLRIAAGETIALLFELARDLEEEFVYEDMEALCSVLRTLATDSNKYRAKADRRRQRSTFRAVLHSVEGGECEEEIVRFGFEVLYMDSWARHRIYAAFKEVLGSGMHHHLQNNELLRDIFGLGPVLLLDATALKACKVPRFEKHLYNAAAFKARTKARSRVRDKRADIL
UniProt Q12906, whole entry, looked up: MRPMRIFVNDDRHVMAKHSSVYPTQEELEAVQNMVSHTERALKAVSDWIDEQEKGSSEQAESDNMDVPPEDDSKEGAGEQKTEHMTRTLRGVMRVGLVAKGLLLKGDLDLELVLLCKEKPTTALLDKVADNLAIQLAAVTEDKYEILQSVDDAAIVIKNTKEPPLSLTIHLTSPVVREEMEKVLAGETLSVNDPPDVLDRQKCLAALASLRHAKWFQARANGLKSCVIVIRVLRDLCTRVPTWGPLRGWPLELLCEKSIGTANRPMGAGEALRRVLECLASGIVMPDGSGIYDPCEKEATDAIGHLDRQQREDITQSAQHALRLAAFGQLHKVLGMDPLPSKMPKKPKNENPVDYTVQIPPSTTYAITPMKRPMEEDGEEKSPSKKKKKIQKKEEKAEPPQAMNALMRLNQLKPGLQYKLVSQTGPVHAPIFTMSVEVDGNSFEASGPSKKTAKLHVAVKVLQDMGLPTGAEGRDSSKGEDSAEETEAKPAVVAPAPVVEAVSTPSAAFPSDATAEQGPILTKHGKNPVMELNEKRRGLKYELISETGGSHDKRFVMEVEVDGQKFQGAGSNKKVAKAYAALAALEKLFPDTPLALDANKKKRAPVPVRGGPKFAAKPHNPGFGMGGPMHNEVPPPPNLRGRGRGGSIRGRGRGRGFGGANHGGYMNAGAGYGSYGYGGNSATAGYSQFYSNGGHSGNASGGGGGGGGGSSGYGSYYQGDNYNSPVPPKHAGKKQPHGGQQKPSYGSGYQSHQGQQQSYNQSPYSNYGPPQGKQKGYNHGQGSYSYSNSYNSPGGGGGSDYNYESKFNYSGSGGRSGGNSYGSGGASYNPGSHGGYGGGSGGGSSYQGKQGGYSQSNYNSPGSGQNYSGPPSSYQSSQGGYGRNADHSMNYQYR
UniProt O00458: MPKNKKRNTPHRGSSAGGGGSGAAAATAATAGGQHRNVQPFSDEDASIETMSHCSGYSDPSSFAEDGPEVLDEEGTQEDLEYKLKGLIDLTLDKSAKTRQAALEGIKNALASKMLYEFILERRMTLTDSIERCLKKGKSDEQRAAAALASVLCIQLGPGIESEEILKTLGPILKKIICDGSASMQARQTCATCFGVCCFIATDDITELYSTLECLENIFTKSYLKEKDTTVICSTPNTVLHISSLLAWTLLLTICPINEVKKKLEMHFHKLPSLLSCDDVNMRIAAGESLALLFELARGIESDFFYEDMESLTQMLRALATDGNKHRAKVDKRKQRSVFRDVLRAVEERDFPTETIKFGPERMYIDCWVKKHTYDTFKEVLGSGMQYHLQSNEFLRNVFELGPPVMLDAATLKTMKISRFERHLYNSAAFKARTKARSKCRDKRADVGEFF

How the values were obtained:
Assay in all cases: log2 fold change, soluble protein after heating vs DMSO (PISA); higher = thermal stabilisation; K562 cells, 10 uM, 30 min; active = over 0.2 and 3.5 SD of the protein, either way, in both replicates (recomputed)
bafetinib = compound: Cc1ccc(NC(=O)c2ccc(CN3CC[C@H](N(C)C)C3)c(C(F)(F)F)c2)cc1Nc1nccc(-c2cncnc2)n1 [bafetinib]
Outline: (§1)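 For each measurement, 10 μM compound was applied for 30 min to K562 cells at 2×10^6 cells/mL. Aliquots were heated for 3 min across 48°C-58°C, pooled, and extracted in PBS with 0.5% NP-40 at 4°C; the supernatant after 21,000xg for 90 min was soluble protein. This was quantified by TMTpro 16plex LC-MS/MS with channel sums equalised, and thermal stability was reported relative to control samples from duplicates, on a log2 fold-change scale.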

[1] = compound: Cc1cccc(CC(=O)N2CCc3c2ccc(-c2cn(C)c4ncnc(N)c24)c3F)n1
Outline: as §1

nilotinib = compound: Cc1cn(-c2cc(NC(=O)c3ccc(C)c(Nc4nccc(-c5cccnc5)n4)c3)cc(C(F)(F)F)c2)cn1 [nilotinib]
Outline: as §1

[2] = compound: Cc1nc(Nc2n[nH]c3c2CN(C(=O)N[C@H](CN(C)C)c2ccccc2)C3(C)C)c2sccc2n1
Outline: as §1

dasatinib = compound: Cc1nc(Nc2ncc(C(=O)Nc3c(C)cccc3Cl)s2)cc(N2CCN(CCO)CC2)n1 [dasatinib]
Outline: as §1

[3] = compound: Cc1ncc(-c2ccnc(Nc3ccc(S(C)(=O)=O)cc3)n2)n1C(C)C
Outline: as §1

[4] = compound: Cn1cc(-c2ccc3c(c2)CCN3C(=O)Cc2cccc(C(F)(F)F)c2)c2c(N)ncnc21
Outline: as §1

[5] = compound: Cn1cc(-c2ccc3nnc(C(F)(F)c4ccc5ncccc5c4)n3n2)cn1
Outline: as §1

tipifarnib = compound: Cn1cncc1[C@@](N)(c1ccc(Cl)cc1)c1ccc2c(c1)c(-c1cccc(Cl)c1)cc(=O)n2C [tipifarnib]
Outline: as §1

mubritinib = compound: FC(F)(F)c1ccc(/C=C/c2nc(COc3ccc(CCCCn4ccnn4)cc3)co2)cc1 [mubritinib]
Outline: as §1

[6] = compound: NC(=O)Nc1cc(-c2cccc(F)c2)sc1C(=O)N[C@H]1CCCNC1
Outline: as §1

[7] = compound: NC(=O)c1cnc(N[C@@H]2CCCC[C@@H]2N)nc1Nc1cccc(-n2nccn2)c1
Outline: as §1

[8] = compound: NC1(c2ccc(-c3nc4ccn5c(=O)[nH]nc5c4cc3-c3ccccc3)cc2)CCC1
Outline: as §1

[9] = compound: NCC(=O)Nc1ccc(-n2nc(C(F)(F)F)cc2-c2ccc3c(ccc4ccccc43)c2)cc1
Outline: as §1

entinostat = compound: Nc1ccccc1NC(=O)c1ccc(CNC(=O)OCc2cccnc2)cc1 [entinostat]
Outline: as §1

vorinostat = compound: O=C(CCCCCCC(=O)Nc1ccccc1)NO [vorinostat]
Outline: as §1

citarinostat = compound: O=C(CCCCCCNC(=O)c1cnc(N(c2ccccc2)c2ccccc2Cl)nc1)NO [citarinostat]
Outline: as §1

silmitasertib = compound: O=C(O)c1ccc2c(c1)nc(Nc1cccc(Cl)c1)c1ccncc12 [silmitasertib]
Outline: as §1

[10] = compound: O=C1NC(=O)C(c2cnc3ccccn23)=C1c1cn2c3c(cc(F)cc13)CN(C(=O)N1CCCCC1)CC2
Outline: as §1

[11] = compound: c1cc(OCCN2CCCCC2)cc(-c2n[nH]c3ccc(-c4nnc[nH]4)cc23)c1
Outline: as §1

| Target | log2 fold change (bafetinib) | log2 fold change [1] | log2 fold change (nilotinib) | log2 fold change [2] | log2 fold change (dasatinib) | log2 fold change [3] | log2 fold change [4] | log2 fold change [5] | log2 fold change (tipifarnib) | log2 fold change (mubritinib) | log2 fold change [6] | log2 fold change [7] | log2 fold change [8] | log2 fold change [9] | log2 fold change (entinostat) | log2 fold change (vorinostat) | log2 fold change (citarinostat) | log2 fold change (silmitasertib) | log2 fold change [10] | log2 fold change [11] |
| --- | --- | --- | --- | --- | --- | --- | --- | --- | --- | --- | --- | --- | --- | --- | --- | --- | --- | --- | --- | --- |
| IPO4 isoform 2 (UniProt Q8TEX9) | inactive: 0.065 | inactive: 0.053 | inactive: -0.081 | inactive: -0.116 | inactive: -0.113 | inactive: 0.004 | inactive: -0.16 | inactive: -0.073 | inactive: -0.089 | inactive: -0.072 | inactive: 0.038 | inactive: -0.037 | inactive: -0.119 | inactive: 0.026 | inactive: 0.024 | inactive: 0.087 | inactive: 0.049 | inactive: 0.152 | inactive: 0.114 | inactive: -0.058 |
| INTS10 (UniProt Q9NVR2) | inactive: -0.034 | inactive: 0.035 | inactive: 0.019 | inactive: -0.034 | inactive: -0.146 | inactive: -0.006 | inactive: 0.079 | inactive: -0.012 | inactive: -0.009 | inactive: 0.087 | inactive: 0.029 | inactive: -0.054 | inactive: -0.167 | inactive: -0.063 | inactive: 0.057 | inactive: 0.121 | inactive: 0.097 | inactive: -0.035 | inactive: -0.064 | inactive: -0.122 |
| IGSF3 (UniProt O75054) | inactive: -0.061 | inactive: -0.062 | inactive: -0.026 | inactive: -0.004 | inactive: -0.027 | inactive: -0.021 | inactive: -0.03 | inactive: -0.035 | inactive: 0.094 | inactive: 0.015 | inactive: -0.126 | inactive: 0.069 | inactive: -0.025 | inactive: 0.032 | inactive: -0.036 | inactive: -0.037 | inactive: 0.017 | inactive: -0.01 | inactive: -0.019 | inactive: 0.069 |
| IPO7 (UniProt O95373) | inactive: -0.018 | inactive: 0.035 | inactive: -0.058 | inactive: -0.044 | inactive: -0.074 | inactive: -0.091 | inactive: -0.018 | inactive: 0.008 | inactive: -0.126 | inactive: 0.079 | inactive: 0.024 | inactive: -0.099 | inactive: -0.145 | inactive: -0.069 | inactive: 0.036 | inactive: 0.055 | inactive: 0.056 | inactive: 0.015 | inactive: -0.004 | inactive: -0.09 |
| IGF2R (UniProt P11717) | active: -0.338 | inactive: 0.021 | inactive: -0.02 | inactive: -0.087 | inactive: -0.023 | inactive: 0.021 | inactive: 0 | inactive: 0.023 | inactive: 0.045 | inactive: 0.003 | inactive: -0.032 | inactive: 0.03 | active: -0.546 | inactive: 0.006 | inactive: -0.008 | inactive: 0 | inactive: 0.07 | inactive: 0.021 | inactive: -0.063 | inactive: -0.184 |
| IFRD2 isoform 2 (UniProt Q12894) | inactive: -0.083 | inactive: -0.019 | inactive: 0.153 | inactive: 0.047 | inactive: 0.028 | inactive: 0.236 | inactive: 0.07 | inactive: -0.176 | inactive: 0.08 | inactive: 0.073 | inactive: -0.044 | inactive: -0.279 | inactive: 0.003 | inactive: 0.11 | inactive: -0.2 | inactive: -0.244 | inactive: -0.028 | inactive: 0.276 | inactive: -0.008 | inactive: 0.046 |
| ILF3 isoform 7 (UniProt Q12906) | inactive: 0.082 | inactive: -0.028 | inactive: -0.02 | inactive: 0.244 | inactive: 0.155 | inactive: 0.297 | inactive: -0.179 | inactive: -0.089 | inactive: 0.057 | inactive: -0.031 | inactive: -0.056 | inactive: 0.055 | inactive: 0.17 | inactive: 0.107 | inactive: -0.083 | inactive: -0.052 | inactive: -0.053 | inactive: 0.189 | inactive: 0.32 | inactive: -0.105 |
| IFRD1 (UniProt O00458) | inactive: 0.118 | inactive: -0.031 | inactive: 0.165 | inactive: 0.056 | inactive: 0.071 | inactive: 0.202 | inactive: -0.011 | inactive: -0.005 | inactive: 0.001 | inactive: 0.1 | inactive: -0.035 | inactive: -0.275 | inactive: -0.058 | inactive: -0.009 | inactive: -0.08 | inactive: -0.25 | inactive: -0.035 | inactive: 0.175 | inactive: 0.022 | inactive: -0.016 |
